Chains of the proteins cited; added tags and fusions are not shown. Lines headed by an entry give the natural chain unless they say otherwise; changes in a name come on top.
UniProt Q00005: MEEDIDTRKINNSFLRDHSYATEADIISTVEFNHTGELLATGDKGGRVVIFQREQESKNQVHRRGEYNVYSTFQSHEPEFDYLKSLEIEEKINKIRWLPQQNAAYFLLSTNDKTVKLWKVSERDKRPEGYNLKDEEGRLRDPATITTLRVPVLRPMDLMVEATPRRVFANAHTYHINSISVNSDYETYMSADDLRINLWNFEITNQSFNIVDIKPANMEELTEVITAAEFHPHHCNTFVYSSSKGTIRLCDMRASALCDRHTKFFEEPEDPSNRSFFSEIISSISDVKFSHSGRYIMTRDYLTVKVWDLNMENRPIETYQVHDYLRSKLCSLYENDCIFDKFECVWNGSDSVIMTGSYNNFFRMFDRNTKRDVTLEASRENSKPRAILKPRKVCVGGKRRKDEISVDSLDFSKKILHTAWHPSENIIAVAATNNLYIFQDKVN
UniProt P63330: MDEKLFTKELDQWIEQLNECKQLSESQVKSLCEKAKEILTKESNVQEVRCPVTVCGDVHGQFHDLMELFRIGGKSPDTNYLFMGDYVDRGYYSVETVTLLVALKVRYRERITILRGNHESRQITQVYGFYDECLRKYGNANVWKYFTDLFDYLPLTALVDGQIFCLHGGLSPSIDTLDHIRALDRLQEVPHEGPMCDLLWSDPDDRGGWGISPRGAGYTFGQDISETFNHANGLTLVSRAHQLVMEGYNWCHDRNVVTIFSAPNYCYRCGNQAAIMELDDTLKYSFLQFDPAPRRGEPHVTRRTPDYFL

According to publication PMC4275284:

Experiments:
YN-B55β1 [1] = biological target: YN-B55β1 (UniProt Q00005); assay: split reporter; equal amounts of the YN- and YC-fusion constructs co-transfected into NIH3T3 cells, fixed 24 h later, YFP read by fluorescence microscopy; in Fig. 3B also after aphidicolin (early S phase)
YN-B55β1 [2] = biological target: YN-B55β1 (UniProt Q00005); assay: co-IP
YN-B55β1 [3] = biological target: YN-B55β1 (UniProt Q00005); assay: split reporter; Aα-YC or YC-Aα, YN-B and pCMV5-SMTWT, pCMV5-SMTMUT or empty vector (1:1:2) co-transfected into NIH3T3 cells, YFP read 24 h later

Substance: YC-Aα (from UniProt P30153 1-589)
- binding (YN-B55β1 [1]): binds

Substance: endogenous PP2Ac subunit (from UniProt P63330 1-309)
- binding (YN-B55β1 [2]): binds

Substance: endogenous PP2A/A subunit (from UniProt Q76MZ3 1-589)
- binding (YN-B55β1 [2]): binds

Substance: Aα-YC (from UniProt P30153 1-589)
- binding (YN-B55β1 [2]): binds
- binding (YN-B55β1 [3]): binds
- binding (YN-B55β1 [1]): binds

Results are given in words; binding and its absence hold for the method and conditions named. Binding seen in cells or lysates may run through a third protein. Binding calls can cover weak binding; strength is not graded here.
